Patent US20180194861A1
Results are given in words; binding and its absence hold for the method and conditions named. Some binding calls cover weakened binding; strength is not graded here.

Amino acid sequences for entries named in this document (tags omitted). Residues count along the entry.
UniProt P07766, residues 23-207: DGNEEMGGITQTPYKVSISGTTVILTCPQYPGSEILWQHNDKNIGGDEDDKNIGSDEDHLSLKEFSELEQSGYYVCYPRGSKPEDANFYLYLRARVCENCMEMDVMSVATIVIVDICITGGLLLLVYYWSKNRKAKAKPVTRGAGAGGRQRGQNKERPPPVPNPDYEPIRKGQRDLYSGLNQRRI
UniProt Q9UHE8: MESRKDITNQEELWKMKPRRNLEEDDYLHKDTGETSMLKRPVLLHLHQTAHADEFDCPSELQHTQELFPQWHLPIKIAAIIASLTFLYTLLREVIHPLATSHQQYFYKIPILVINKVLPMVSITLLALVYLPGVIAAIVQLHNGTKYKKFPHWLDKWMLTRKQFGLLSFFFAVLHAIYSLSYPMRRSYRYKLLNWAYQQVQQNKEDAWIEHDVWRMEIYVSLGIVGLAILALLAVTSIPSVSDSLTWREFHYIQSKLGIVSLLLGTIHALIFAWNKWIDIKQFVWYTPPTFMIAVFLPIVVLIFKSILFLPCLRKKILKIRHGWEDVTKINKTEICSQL
UniProt Q04609: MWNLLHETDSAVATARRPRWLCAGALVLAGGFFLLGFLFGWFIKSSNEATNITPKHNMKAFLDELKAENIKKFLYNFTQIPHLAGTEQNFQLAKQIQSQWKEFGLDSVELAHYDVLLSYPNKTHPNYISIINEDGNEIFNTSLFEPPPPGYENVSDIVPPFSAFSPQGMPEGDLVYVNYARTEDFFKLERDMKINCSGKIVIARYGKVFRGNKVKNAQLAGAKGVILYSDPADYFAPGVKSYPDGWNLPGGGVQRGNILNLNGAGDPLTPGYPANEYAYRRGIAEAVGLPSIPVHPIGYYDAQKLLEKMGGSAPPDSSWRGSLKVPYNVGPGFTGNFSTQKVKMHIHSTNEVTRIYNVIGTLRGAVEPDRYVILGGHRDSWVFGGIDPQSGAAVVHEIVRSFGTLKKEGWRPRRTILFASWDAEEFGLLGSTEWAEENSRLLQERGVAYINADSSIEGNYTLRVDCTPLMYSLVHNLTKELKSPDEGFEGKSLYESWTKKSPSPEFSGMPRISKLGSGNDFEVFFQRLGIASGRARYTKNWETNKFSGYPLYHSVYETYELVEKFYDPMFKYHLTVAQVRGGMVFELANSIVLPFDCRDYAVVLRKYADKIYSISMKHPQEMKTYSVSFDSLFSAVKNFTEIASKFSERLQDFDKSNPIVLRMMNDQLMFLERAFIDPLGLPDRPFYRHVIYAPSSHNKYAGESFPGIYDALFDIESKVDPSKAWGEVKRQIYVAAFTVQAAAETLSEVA

B1: AB596-MH2n/p (antibody, V domains shown)
VH: EVTLKESGPVLVKPTETLTLTCTVSGFSLTSFGVSWVRQPPGKGLEWIAAIWNSGRMDYNSALKSRLTISRDTSKSQVVLTMTNMDPVDTAMYFCARSGGSHWGQGTLVTVSS
VL: DIQMTQSPSSLSASVGDRVTITCKPSQNIDKYLNWYQQKPGKAPKRLIYNTNNLQTGIPSRFSGSGSGTEYTLTISSLQPEDFATYFCLQHRSGWTFGGGTKVEIKR
B2: TPP3956 (parental anti-STEAP1 antibody) (antibody, V domains shown)
VH: EVQLVESGGGVVQPGRSLRLSCVASGFPFNNYWMTWIRQAPGKGLEWIASITITGGTTYYPGSVKGRFTISRDNSKSTLYLQMNSLRAEDTAVYYCTRERYSTEYYPYYWYFDFWGQGTMVTVSS
VL: DIQMTQSPSSLSASVGDRVTITCRTSQDIGNYLRWFQQKPGKSPKLMIYDAINLAAGVPSRFSGSGSGTDYTLTISSLQPEDVATYYCLQHNEYPYTFGQGTKLEIK
B3: hPSMA17.1 (parental anti-PSMA antibody) (antibody, V domains shown)
VH: EVQLVQSGAEVKKPGSSVKVSCKASGYTFTDYYMNWVKQAPGKGLEWIGLINPNSGGINYNQKFKVKATLTVDKSTSTAYMELSSLRSEDTAVYYCARRDYGTSGDYWGQGTTVTVSS
VL: DIQMTQSPSSLSASVGDRVTITCHASQNINVWLSWYQQKPGKAPKLLIYKASNLHTGVPSRFSGSGSGTDFTLTISSLQPEDFATYYCQQGQSYPLTFGQGTKLEIK
B4: AB596 (parental anti-CD3 antibody) (antibody, V domains shown)
VH: B1 VH
VL: DIQMTQSPSSLSASVGDRVTITCKPSQNIDKYLNWYQQKPGKAPKRLIYNTNNLQTGIPSRFSGSGSGTEYTLTISSLQPEDFATYFCLQHRSGWTFGGGTKVEIK

Assays:
[1] = molecular target: CD3 on Jurkat cells (UniProt P07766); assay: FACS on Jurkat cells
[2] = molecular target: STEAP1 on 293/STEAP1 cells and LnCap cells (UniProt Q9UHE8); assay: FACS on 293/STEAP1 cells
[3] = molecular target: PSMA on 293/PSMA cells and LnCap cells (UniProt Q04609); assay: FACS on 293/PSMA cells

| Binder | binding [1] | also measured |
| --- | --- | --- |
| B1 | binds | – |
| B2 | – | binding [2]: binds |
| B3 | – | binding [3]: binds |
| B4 | binds | – |
